PMC7173924
Results are given in words; binding and its absence hold for the method and conditions named. In cells and extracts the contact can be indirect. Here binding means that the protein was enriched with, or labelled near, the bait; the list need not be complete. Where a sequence is shown, tags or fusion partners need not be part of it.

By UniProt entry, the sequences of proteins in these tests, tags left out.
UniProt Q9UJ55: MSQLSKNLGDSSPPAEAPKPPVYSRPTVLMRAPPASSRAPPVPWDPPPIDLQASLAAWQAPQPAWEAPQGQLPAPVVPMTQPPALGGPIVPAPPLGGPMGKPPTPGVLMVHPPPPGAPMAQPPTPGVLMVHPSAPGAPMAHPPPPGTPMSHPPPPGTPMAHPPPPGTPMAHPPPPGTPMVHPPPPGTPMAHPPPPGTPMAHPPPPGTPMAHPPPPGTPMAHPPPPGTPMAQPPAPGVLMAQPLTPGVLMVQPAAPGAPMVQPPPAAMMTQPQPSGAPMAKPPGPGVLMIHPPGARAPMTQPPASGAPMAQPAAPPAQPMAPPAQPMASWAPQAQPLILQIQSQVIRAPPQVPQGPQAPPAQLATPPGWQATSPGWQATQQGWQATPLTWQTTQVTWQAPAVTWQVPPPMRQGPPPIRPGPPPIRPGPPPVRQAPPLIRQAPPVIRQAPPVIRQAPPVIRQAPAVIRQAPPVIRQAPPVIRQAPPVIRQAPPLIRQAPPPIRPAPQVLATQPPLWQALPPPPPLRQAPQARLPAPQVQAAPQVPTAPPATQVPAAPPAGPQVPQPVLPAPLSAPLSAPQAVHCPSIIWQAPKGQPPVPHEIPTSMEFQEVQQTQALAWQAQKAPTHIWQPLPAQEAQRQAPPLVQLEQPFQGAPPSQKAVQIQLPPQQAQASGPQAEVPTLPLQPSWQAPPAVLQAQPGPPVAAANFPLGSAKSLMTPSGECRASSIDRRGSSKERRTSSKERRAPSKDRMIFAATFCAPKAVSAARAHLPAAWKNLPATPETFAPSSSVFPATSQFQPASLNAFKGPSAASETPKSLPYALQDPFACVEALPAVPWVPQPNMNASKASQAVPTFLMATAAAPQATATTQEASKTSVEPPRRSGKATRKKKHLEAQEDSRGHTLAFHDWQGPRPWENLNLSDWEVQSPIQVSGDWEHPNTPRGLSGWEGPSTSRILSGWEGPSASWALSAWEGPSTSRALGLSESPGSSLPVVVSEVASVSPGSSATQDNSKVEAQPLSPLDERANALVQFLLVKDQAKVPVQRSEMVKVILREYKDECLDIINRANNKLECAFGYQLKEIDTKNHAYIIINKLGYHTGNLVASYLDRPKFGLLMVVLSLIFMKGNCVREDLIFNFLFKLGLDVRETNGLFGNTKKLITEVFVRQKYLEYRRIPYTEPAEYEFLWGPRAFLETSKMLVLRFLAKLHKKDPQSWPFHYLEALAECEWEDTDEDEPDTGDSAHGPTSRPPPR

Target: BirA*-MAGEL2 (FLAG-tagged biotin ligase-fusion protein, wild type) (human) (UniProt Q9UJ55)
Assay: proximity labelling; BioID in U2OS cells transiently co-transfected with a BirA* fusion (bait) and an epitope-tagged prey; 50 uM biotin, 24 h; streptavidin agarose affinity purification of the lysate, immunoblot of input and bound

binding: binds
B1: GFP-CRY2 (protein, UniProt Q49AN0 1-593)
chain: MAATVATAAAVAPAPAPGTDSASSVHWFRKGLRLHDNPALLAAVRGARCVRCVYILDPWFAASSSVGINRWRFLLQSLEDLDTSLRKLNSRLFVVRGQPADVFPRLFKEWGVTRLTFEYDSEPFGKERDAAIMKMAKEAGVEVVTENSHTLYDLDRIIELNGQKPPLTYKRFQAIISRMELPKKPVGLVTSQQMESCRAEIQENHDETYGVPSLEELGFPTEGLGPAVWQGGETEALARLDKHLERKAWVANYERPRMNANSLLASPTGLSPYLRFGCLSCRLFYYRLWDLYKKVKRNSTPPLSLFGQLLWREFFYTAATNNPRFDRMEGNPICIQIPWDRNPEALAKWAEGKTGFPWIDAIMTQLRQEGWIHHLARHAVACFLTRGDLWVSWESGVRVFDELLLDADFSVNAGSWMWLSCSAFFQQFFHCYCPVGFGRRTDPSGDYIRRYLPKLKAFPSRYIYEPWNAPESIQKAAKCIIGVDYPRPIVNHAETSRLNIERMKQIYQQLSRYRGLCLLASVPSCVEDLSHPVAEPSSSQAGSMSSAGPRPLPSGPASPKRKLEAAEEPPGEELSKRARVAELPTPELPSKDA
